40 molecules from the supplement of paper PMC8256030 can be followed below.

Where “and” joins values, the source holds several entries; their conditions need not be identical. Identical values can stand only once. Some of the results follow. This data set is noisy: repeats of one test often differ as much as different tests do.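 HEK293T cells were given each compound shortly before transfection with a reporter in which red mCherry is followed by the SARS-CoV-2 frameshift element and then GFP in the −1 frame, so GFP appears only after frameshifting.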

For the experiment, the system named is HEK293T. Briefly: percent viability (nuclei count) relative to control; higher = more viable cells. Conditions: 10 µM; 24 h.
In the case of `N#Cc1ccc2[nH]cc(CCCCN3CCN(c4ccc5oc(C(N)=O)cc5c4)CC3)c2c1`, the percent viability was determined as 383%.

Regarding `O=P(O)(O)C(Cl)(Cl)P(=O)(O)O` [clodronic acid], the percent viability was 93.1%.

In the case of `CC#CCC(C)[C@H](O)/C=C/[C@@H]1[C@H]2c3cccc(CCCC(=O)O)c3O[C@H]2C[C@H]1O` (mixture of isomers) [beraprost], the percent viability came to 168%.

With `CNCC[C@@H](Oc1ccccc1C)c1ccccc1`, the percent viability stood at 322%.

For `CCC(=O)O[C@H](CC(=O)O)C[N+](C)(C)C`, the percent viability turned out to be 169%.

With `CN(C)CCOC(C)(c1ccccc1)c1ccc(Cl)cc1` (stereo not given) [chlorphenoxamine], the percent viability is 277%.

Regarding `N=C(N)N`, the percent viability was 152%.

Consider `NS(=O)(=O)NCc1ccccc1` [benzylsulfamide], for which the percent viability amounted to 298%.

With `O=C(/C=C/c1ccc2c(c1)OCO2)N1CCN(CC(=O)N2CCCC2)CC1` [cinoxopazide], the percent viability worked out at 76%.

`CN(C)C(=O)Cn1cc(-c2ccc(-c3cncc4ccccc34)cc2)cn1`: the percent viability came out at 533%.

As to `CO[C@H]1C[C@@H]2CC[C@@H](C)[C@@](O)(O2)C(=O)C(=O)N2CCCC[C@H]2C(=O)O[C@H]([C@H](C)C[C@@H]2CC[C@@H](O)[C@H](OC)C2)CC(=O)[C@H](C)/C=C(\C)[C@@H](O)[C@@H](OC)C(=O)[C@H](C)C[C@H](C)/C=C/C=C/C=C/1C` [Rapamycin], the percent viability came out at 179%.

On to `CC(C)[C@H](N)C(=O)O` [valine], for which the percent viability worked out at 260%.

With `Nc1nc(=O)c2nc(CNc3ccc(C(=O)N[C@@H](CCC(=O)O)C(=O)O)cc3)cnc2[nH]1`, the percent viability was determined as 277%.

On to `CCOC(=O)CC(=O)N1CCSC1COc1ccccc1OC` (stereo not given) [moguisteine], for which the percent viability came to 289%.

Turning to `COc1cc(NCCCCCNC(C)C)c2ncccc2c1` [pentaquine], the percent viability was 154%.

Regarding `CC(=O)Nc1ccc(OCC(O)CNC(C)C)cc1` (stereo not given) [practolol], the percent viability was found to be 152%.

Take `COc1cc2c(cc1OC)CC(=O)N(CCCN(C)C[C@H]1Cc3cc(OC)c(OC)cc31)CC2` [ivabradine]: the percent viability amounted to 208%.

`CCOC(=O)c1ncn2c1CN(C)C(=O)c1cc(F)ccc1-2` [flumazenil]: the percent viability is 282% and 213%.

`Cc1ncc(CSSCc2cnc(C)c(O)c2CO)c(CO)c1O` [pyritinol]: the percent viability came to 157%.

For the molecule `CC(C(=O)O)c1cccc(C(=O)c2ccccc2)c1` (stereo not given) [ketoprofen], the percent viability is 258% and 335%.

Consider `CC[C@H]1OC(=O)[C@H](C)C(=O)[C@H](C)[C@@H](O[C@@H]2O[C@H](C)C[C@H](N(C)C)[C@H]2O)[C@](C)(OC)C[C@@H](C)C(=O)[C@H](C)[C@H]2N(CCCCn3cnc(-c4cccnc4)c3)C(=O)O[C@]12C`, for which the percent viability turned out to be 289%.

`C=C1/C(=C\C=C2/CCC[C@]3(C)[C@@H]([C@H](C)OCCC(C)(C)O)CC[C@@H]23)C[C@@H](O)C[C@@H]1O` [maxacalcitol]: the percent viability turned out to be 121%.

For `CC(=O)N[C@H](Cc1ccc2ccccc2c1)C(=O)N[C@H](Cc1ccc(Cl)cc1)C(=O)N[C@H](Cc1cccnc1)C(=O)N[C@@H](CO)C(=O)N(C)[C@@H](Cc1ccc(O)cc1)C(=O)N[C@H](CC(N)=O)C(=O)N[C@@H](CC(C)C)C(=O)N[C@@H](CCCCNC(C)C)C(=O)N1CCC[C@H]1C(=O)N[C@H](C)C(N)=O` [abarelix], the percent viability was determined as 124%.

In the case of `CNCCCC1(c2ccccc2)OC(C)(C)c2ccccc21` (stereo not given) [talopram], the percent viability was 122%.

On to `NC(=O)CC[C@H](N)C(=O)O` [glutamine], for which the percent viability worked out at 168%.

`COc1nc(N)nc2c1ncn2[C@@H]1O[C@H](CO)[C@@H](O)[C@@H]1O`: the percent viability is 101%.

Regarding `CCC[C@@H]1C[C@@H](C(=O)N[C@@H]([C@H]2O[C@H](SC)[C@H](O)[C@@H](O)[C@H]2O)[C@H](C)Cl)N(C)C1` [Clindamycin], the percent viability is 123%.

Take `C[C@H]1[C@H](NC(=O)/C(=N\OC(C)(C)C(=O)O)c2csc(N)n2)C(=O)N1S(=O)(=O)O` [Aztreonam]: the percent viability was 188%.

For `CO[C@H]1O[C@H](COS(=O)(=O)O)[C@@H](O[C@@H]2O[C@@H](C(=O)O)[C@@H](O[C@H]3O[C@H](COS(=O)(=O)O)[C@@H](O[C@@H]4O[C@H](C(=O)O)[C@@H](O[C@H]5O[C@H](COS(=O)(=O)O)[C@@H](O)[C@H](O)[C@H]5NS(=O)(=O)O)[C@H](O)[C@H]4O)[C@H](OS(=O)(=O)O)[C@H]3NS(=O)(=O)O)[C@H](O)[C@H]2OS(=O)(=O)O)[C@H](O)[C@H]1NS(=O)(=O)O` [Fondaparinux sodium], the percent viability was 236%.

On to `CCC(C/C=C/c1ccccc1)(c1ccccc1)N(C)CC1CC1` (stereo not given) [igmesine], for which the percent viability came to 150%.

On to `NCC[C@H](O)C(=O)N[C@@H]1C[C@H](N)[C@@H](O[C@H]2O[C@H](CN)[C@@H](O)[C@H](O)[C@H]2O)[C@H](O)[C@H]1O[C@H]1O[C@H](CO)[C@@H](O)[C@H](N)[C@H]1O` [amikacin], for which the percent viability was 271% and 161%.

In the case of `N=C(N)NCCN1CCCCCCC1`, the percent viability worked out at 139%.

As for `C=CC[C@@H]1/C=C(\C)C[C@H](C)C[C@H](OC)[C@H]2O[C@@](O)(C(=O)C(=O)N3CCCC[C@H]3C(=O)O[C@H](/C(C)=C/[C@@H]3CC[C@@H](O)[C@H](OC)C3)[C@H](C)[C@@H](O)CC1=O)[C@H](C)C[C@@H]2OC`, the percent viability was 104%.

`Cc1cc(Nc2ncc(Cl)c(Nc3ccccc3S(=O)(=O)C(C)C)n2)c(OC(C)C)cc1C1CCNCC1` [Ceritinib]: the percent viability amounted to 141%.

For the molecule `CCn1cc(C(=O)O)c(=O)c2cc(F)c(N3CCNCC3)nc21` [enoxacin], the percent viability is 239% and 179%.

Turning to `C[C@H](O)[C@H](O)[C@H]1CNc2nc(N)[nH]c(=O)c2N1` [Tetrahydrobiopterin], the percent viability was determined as 190%.

Regarding `Cc1ccc(S(=O)(=O)NC(=O)NN2CCCCCC2)cc1` [Tolazamide], the percent viability amounted to 96.7%.

On to `Cc1cccc(C)c1NC(=O)c1ccccc1C(=O)O` [ftaxilide], for which the percent viability stood at 30.2%.

As to `CC1CCCC(C)N1CCCC(O)(c1ccccc1)c1ccccn1` (stereo not given) [pirmenol], the percent viability was 188%.

Turning to `CC1(S(=O)(=O)O)CC(=O)c2ccccc2C1=O` (stereo not given) [menadione sodium bisulfite], the percent viability came out at 80%.
